In paper doi:10.1101/2022.07.12.22277558:
Like-named read-outs stand apart in the source and are kept apart here. Results are given in words; binding and its absence hold for the method and conditions named. In cells and extracts the contact can be indirect. Some binding calls cover weakened binding; strength is not graded here.

The chains behind the UniProt entries cited, without tags or fusion partners. Where a name states a change or a piece, a line headed by the entry shows the natural chain unless it says otherwise. Residues count along the entry.
UniProt O43586: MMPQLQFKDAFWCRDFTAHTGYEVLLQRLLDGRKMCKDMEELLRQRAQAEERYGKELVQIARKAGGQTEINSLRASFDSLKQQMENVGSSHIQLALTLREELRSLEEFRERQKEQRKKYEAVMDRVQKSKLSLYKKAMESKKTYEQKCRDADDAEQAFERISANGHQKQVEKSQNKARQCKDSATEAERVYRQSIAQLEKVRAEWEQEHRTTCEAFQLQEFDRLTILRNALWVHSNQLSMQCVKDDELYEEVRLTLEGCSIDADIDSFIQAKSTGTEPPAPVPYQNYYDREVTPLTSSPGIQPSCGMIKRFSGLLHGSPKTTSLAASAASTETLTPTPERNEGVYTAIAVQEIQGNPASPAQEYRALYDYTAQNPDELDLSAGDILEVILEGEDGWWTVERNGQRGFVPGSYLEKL
PSTPIP1-ΔSH3-FLAG (amino acids 1-364): residues 1-364 of O43586
UniProt P42768: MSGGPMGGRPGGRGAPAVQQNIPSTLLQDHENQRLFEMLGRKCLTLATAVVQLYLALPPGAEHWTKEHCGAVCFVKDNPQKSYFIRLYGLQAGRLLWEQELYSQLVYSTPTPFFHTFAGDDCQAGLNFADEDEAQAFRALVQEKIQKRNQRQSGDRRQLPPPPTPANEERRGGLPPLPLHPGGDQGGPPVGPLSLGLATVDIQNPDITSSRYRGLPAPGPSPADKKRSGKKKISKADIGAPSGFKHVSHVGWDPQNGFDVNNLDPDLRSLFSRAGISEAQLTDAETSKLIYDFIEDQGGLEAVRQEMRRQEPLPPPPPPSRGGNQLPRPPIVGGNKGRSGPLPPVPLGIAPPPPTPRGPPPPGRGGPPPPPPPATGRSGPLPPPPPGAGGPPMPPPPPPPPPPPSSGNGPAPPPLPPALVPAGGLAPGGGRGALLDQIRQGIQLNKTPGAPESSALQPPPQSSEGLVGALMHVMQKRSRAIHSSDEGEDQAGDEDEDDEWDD

B1: protein tyrosine phosphatase PTP-PEST (enzyme, UniProt Q05209 1-780)
chain: MEQVEILRKFIQRVQAMKSPDHNGEDNFARDFMRLRRLSTKYRTEKIYPTATGEKEENVKKNRYKDILPFDHSRVKLTLKTPSQDSDYINANFIKGVYGPKAYVATQGPLANTVIDFWRMIWEYNVVIIVMACREFEMGRKKCERYWPLYGEDPITFAPFKISCEDEQARTDYFIRTLLLEFQNESRRLYQFHYVNWPDHDVPSSFDSILDMISLMRKYQEHEDVPICIHCSAGCGRTGAICAIDYTWNLLKAGKIPEEFNVFNLIQEMRTQRHSAVQTKEQYELVHRAIAQLFEKQLQLYEIHGAQKIADGVNEINTENMVSSIEPEKQDSPPPKPPRTRSCLVEGDAKEEILQPPEPHPVPPILTPSPPSAFPTVTTVWQDNDRYHPKPVLHMVSSEQHSADLNRNYSKSTELPGKNESTIEQIDKKLERNLSFEIKKVPLQEGPKSFDGNTLLNRGHAIKIKSASPCIADKISKPQELSSDLNVGDTSQNSCVDCSVTQSNKVSVTPPEESQNSDTPPRPDRLPLDEKGHVTWSFHGPENAIPIPDLSEGNSSDINYQTRKTVSLTPSPTTQVETPDLVDHDNTSPLFRTPLSFTNPLHSDDSDSDERNSDGAVTQNKTNISTASATVSAATSTESISTRKVLPMSIARHNIAGTTHSGAEKDVDVSEDSPPPLPERTPESFVLASEHNTPVRSEWSELQSQERSEQKKSEGLITSENEKCDHPAGGIHYEMCIECPPTFSDKREQISENPTEATDIGFGNRCGKPKGPRDPPSEWT

Key:
Assay in all cases: co-IP
[1] = biological target: PSTPIP1 G403E, FLAG-tagged (human) (UniProt O43586)
[2] = biological target: PSTPIP1 wildtype, FLAG-tagged (human) (UniProt O43586)
[3] = biological target: PSTPIP1 T371I, FLAG-tagged (human) (UniProt O43586)
[4] = biological target: PSTPIP1-ΔSH3-FLAG (amino acids 1-364) (human) (UniProt O43586)
[5] = biological target: PSTPIP1 A382T, FLAG-tagged (human) (UniProt O43586)
[6] = biological target: PSTPIP1 G403E, FLAG-tagged (human) (UniProt O43586); remark: listed apart in the source
[7] = biological target: PSTPIP1 wildtype, FLAG-tagged (human) (UniProt O43586); remark: listed apart in the source
[8] = biological target: PSTPIP1 R405C, FLAG-tagged (human) (UniProt O43586)
[9] = biological target: PSTPIP1 T371I, FLAG-tagged (human) (UniProt O43586); remark: listed apart in the source
[10] = biological target: PSTPIP1-ΔSH3-FLAG (amino acids 1-364) (human) (UniProt O43586); remark: listed apart in the source
[11] = biological target: PSTPIP1 A382T, FLAG-tagged (human) (UniProt O43586); remark: listed apart in the source

| Molecule | binding [1] | binding [2] | binding [3] | binding [4] | binding [5] | binding [6] | binding [7] | binding [8] | binding [9] | binding [10] | binding [11] |
| --- | --- | --- | --- | --- | --- | --- | --- | --- | --- | --- | --- |
| WASp (from UniProt P42768 1-502) | binds | binds | binds | no binding | binds |  |  |  |  |  |  |
| B1 |  |  |  |  |  | binds | binds | binds | binds | binds | binds |
